Test results reported in paper PMC11092260.
No constants are given. Whether binding was seen depends on the method and setting. Binding seen in cells or lysates may run through a third protein. Some entries that bind do so weakly or less than the wild type.

Target: E3 ubiquitin ligase c-Cbl (human (endogenous in HCC cells)) (UniProt P22681)
Assay: co-IP; HCC cells lysed in RIPA buffer with protease inhibitors; anti-PSMD9 or anti-CBL antibody or negative control IgG on protein A/G agarose, overnight at 4 °C; washed five times; Western blotting

binding: binds
B1: 26S proteasome non-ATPase regulatory subunit 9 (PSMD9) (protein, UniProt O00233 1-223)
chain: MSDEEARQSGGSSQAGVVTVSDVQELMRRKEEIEAQIKANYDVLESQKGIGMNEPLVDCEGYPRSDVDLYQVRTARHNIICLQNDHKAVMKQVEEALHQLHARDKEKQARDMAEAHKEAMSRKLGQSESQGPPRAFAKVNSISPGSPASIAGLQVDDEIVEFGSVNTQNFQSLHNIGSVVQHSEGKPLNVTVIRRGEKHQLRLVPTRWAGKGLLGCNIIPLQR
